For test [1], the target named is human PTP-1B (PTP-1B-GST fusion protein) (Homo sapiens, UniProt P18031).
For test [2], the system named is phosphorylation level of the insulin receptor in CHO-IR cells (endogenous PTP-1B). Nature of the test: Intact cell assay: insulin receptor phosphorylation level in CHO-IR cells treated with PTP-1B inhibitors and stimulated with insulin. Conditions: at 50 μM, 5 nM insulin. As to the method: The phosphorylation level of the insulin receptor (IR) was determined in CHO-IR cells (Chinese hamster ovarian cells expressing endogenous PTP-1B and overexpressing human insulin receptor; ATCC, Manassas, Va.) treated with PTP-1B inhibitors and stimulated with 5 nM insulin. CHO-IR cells were grown in F12 media, 10% fetal bovine serum (FBS), and 1% penstrep. All experiments were conducted within the first 12 passages after thawing cells.
On the first day of the experiment, CHO-IR cells were placed in 6-well plates (1/10 of 100 mm confluent plate). Once cells were confluent (˜24 hours later), the cells were starved overnight in 0% fetal bovine serum F12 medium. After the overnight incubation, the medium was changed to fresh 0% F12 30 minutes prior to the addition of inhibitor. A 1 mL aliquote of media containing inhibitor (10, 25 or 50 μM), with a final concentration of 0.1% DMSO, was added to each well. The inhibitors were added directly to the serum-free media, shortly before using them (i.e., the inhibitor was added to cells within 10 minutes of dilution). Cells were incubated with inhibitors for 2-4 hours. […]
Protein quantification was conducted using Bradford reagent (BIO-RAD, Hercules, Calif.). […]
Bands visualized on the blots were quantified using NIH Image 1.62. Quantification was conducted for at least three experiments.

The chains behind the UniProt entries cited, without tags or fusion partners.
UniProt P18031, whole entry: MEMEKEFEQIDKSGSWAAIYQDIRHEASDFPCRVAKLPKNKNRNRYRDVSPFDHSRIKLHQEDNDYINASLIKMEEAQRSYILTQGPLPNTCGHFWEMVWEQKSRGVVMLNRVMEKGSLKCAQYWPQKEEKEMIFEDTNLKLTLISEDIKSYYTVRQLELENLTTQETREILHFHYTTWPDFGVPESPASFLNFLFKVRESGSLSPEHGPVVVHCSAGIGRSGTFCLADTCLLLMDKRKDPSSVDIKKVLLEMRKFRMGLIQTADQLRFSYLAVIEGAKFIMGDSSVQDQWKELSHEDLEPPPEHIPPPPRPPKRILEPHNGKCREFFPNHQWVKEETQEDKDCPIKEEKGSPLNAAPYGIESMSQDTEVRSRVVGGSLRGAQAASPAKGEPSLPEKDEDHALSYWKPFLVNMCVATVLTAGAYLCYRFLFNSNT

Each structure is given as a SMILES string. The structures given here were assigned with low confidence; some may be wrong.

With `O=C(O)c1cc(N2C(=O)c3cccc([N+](=O)[O-])c3C2=O)cc(N2C(=O)c3cccc([N+](=O)[O-])c3C2=O)c1`, in test [1], the IC50 (as a rule, the midpoint of a concentration-inhibition curve) was 530 nM. The “Intact cell assay: fold-increase over control” value in test [2] is “Inactive at 50 μM”.
`O=C(O)c1cc(N2C(=O)c3cccc4c([N+](=O)[O-])ccc(c34)C2=O)cc(N2C(=O)c3cccc4c([N+](=O)[O-])ccc(c34)C2=O)c1`: in test [1], the IC50 is 920 nM.
`Cc1ccc(C=C2SC(=S)N(CCC(=O)Nc3ccc(S(=O)(=O)Nc4nccs4)cc3)C2=O)cc1`: the IC50 in test [1] was 1460 nM.

The values are drawn from US20060070135A1, “Compositions and methods for inhibiting the enzymatic activity of PTP-1B” (priority 1998, published 2006).
